Laboratory results published in PMC7949154, “Heat shock transcription factor 1 is SUMOylated in the activated trimeric state” (The Journal of Biological Chemistry, 2020).
For part of these data: Where a protein sequence is shown, tags need not be part of it. For part of these data: For at least one entry, the source does not settle the construct or the ends of the probe.

Tests used:
[1] = molecular target: Hsf1-S303E,S307E (EE), non-SUMOylated (human) (UniProt Q00613); assay: fluorescence polarization, dissociation assay; conditions: no Hsc70: stays bound, Hsc70 + DnaJB1 + ATP dissociates it; 25 mM Hepes pH 7.6, 150 mM KCl, 5 mM MgCl2, 10% glycerol, 1 mM DTT, 25 C; 5 nM DNA, 0.16-166.67 nM Hsf1 trimer (titration); 25 nM DNA, 0.3 uM trimer (SUMOylation on DNA); recombinant protein; residues 1-529; label: 5' Alexa488 on sense strand
[2] = molecular target: T1, Hsf1-K298R,S303E,S307E (REE) (human) (UniProt Q00613); assay: fluorescence polarization, dissociation assay; conditions: with or without SUMOylation machinery, no Hsc70: stays bound, Hsc70 + DnaJB1 + ATP dissociates it with similar kinetics; 25 mM Hepes pH 7.6, 150 mM KCl, 5 mM MgCl2, 10% glycerol, 1 mM DTT, 25 C; 5 nM DNA, 0.16-166.67 nM Hsf1 trimer (titration); 25 nM DNA, 0.3 uM trimer (SUMOylation on DNA); recombinant protein; residues 1-529; label: 5' Alexa488 on sense strand
T1 sequence (looked up): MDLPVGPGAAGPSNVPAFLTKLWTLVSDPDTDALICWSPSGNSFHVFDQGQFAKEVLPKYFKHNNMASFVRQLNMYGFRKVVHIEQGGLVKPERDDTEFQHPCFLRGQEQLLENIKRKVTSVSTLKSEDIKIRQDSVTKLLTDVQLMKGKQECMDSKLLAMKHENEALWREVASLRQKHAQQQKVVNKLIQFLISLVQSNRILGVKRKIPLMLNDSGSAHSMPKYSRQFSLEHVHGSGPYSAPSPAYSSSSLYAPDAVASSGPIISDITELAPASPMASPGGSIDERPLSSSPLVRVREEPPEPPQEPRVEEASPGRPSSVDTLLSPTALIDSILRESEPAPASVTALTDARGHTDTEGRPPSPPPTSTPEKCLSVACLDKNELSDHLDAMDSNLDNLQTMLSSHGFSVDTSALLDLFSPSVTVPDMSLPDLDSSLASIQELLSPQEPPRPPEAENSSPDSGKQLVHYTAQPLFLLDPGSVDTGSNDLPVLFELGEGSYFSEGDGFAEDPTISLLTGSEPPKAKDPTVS

[3] = molecular target: Hsf1-S303E,S307E (EE), non-SUMOylated (human) (UniProt Q00613); assay: fluorescence polarization equilibrium titration; conditions: trimer, no SUMOylation, Kd shown only in figure; 25 mM Hepes pH 7.6, 150 mM KCl, 5 mM MgCl2, 10% glycerol, 1 mM DTT, 25 C; 5 nM DNA, 0.16-166.67 nM Hsf1 trimer (titration); 25 nM DNA, 0.3 uM trimer (SUMOylation on DNA); recombinant protein; residues 1-529; label: 5' Alexa488 on sense strand

Measured: binding result

CCCCTTCCCGAATATTCCCCC (double strand) [ds-Alexa488-HSEs (3xHSE)]
binds: [1] | [2] | [3]
